Results from publication PMC6292963.
No constants are given. Whether binding was seen depends on the method and setting. In cells and extracts the contact can be indirect. Binding can be weak; no strength is given.

Tests used:
Experiment in all cases: co-IP; soluble proteins from developing rice seeds (wild types Nip, Kin, Akt; mutant lines ss1, EM10 and #1411) extracted in 10 mM Hepes-KOH pH 7.5, 100 mM NaCl, protease inhibitor; incubated with isozyme-specific antibodies and protein A sepharose; extensive washing; captured proteins detected by western blotting; control with pre-immune sera
[1] = target: T1, starch branching enzyme I (rice, japonica (endogenous in developing seeds)) (UniProt Q01401)
T1 sequence: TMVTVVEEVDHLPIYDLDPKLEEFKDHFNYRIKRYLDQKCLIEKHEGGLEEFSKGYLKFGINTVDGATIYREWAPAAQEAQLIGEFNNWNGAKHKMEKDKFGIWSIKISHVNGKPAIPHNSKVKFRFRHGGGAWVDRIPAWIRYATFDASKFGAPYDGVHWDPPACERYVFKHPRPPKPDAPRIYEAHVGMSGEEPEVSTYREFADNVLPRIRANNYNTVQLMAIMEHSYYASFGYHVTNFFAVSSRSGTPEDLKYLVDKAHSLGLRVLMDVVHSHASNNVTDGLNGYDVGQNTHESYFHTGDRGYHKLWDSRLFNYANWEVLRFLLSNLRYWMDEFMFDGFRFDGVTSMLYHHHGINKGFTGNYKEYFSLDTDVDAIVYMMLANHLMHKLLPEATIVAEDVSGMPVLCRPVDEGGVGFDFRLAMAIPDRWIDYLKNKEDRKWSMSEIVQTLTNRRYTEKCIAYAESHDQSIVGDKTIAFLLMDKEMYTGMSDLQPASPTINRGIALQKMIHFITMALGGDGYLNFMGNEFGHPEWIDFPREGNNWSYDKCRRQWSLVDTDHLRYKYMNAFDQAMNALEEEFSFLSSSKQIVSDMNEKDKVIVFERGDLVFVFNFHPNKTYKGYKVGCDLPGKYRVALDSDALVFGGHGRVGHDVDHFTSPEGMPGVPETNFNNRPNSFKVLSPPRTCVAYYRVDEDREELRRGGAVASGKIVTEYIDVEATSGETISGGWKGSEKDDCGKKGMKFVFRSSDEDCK

[2] = target: T2, starch synthase I (rice, japonica (endogenous in developing seeds)) (UniProt Q0DEC8)
T2 sequence: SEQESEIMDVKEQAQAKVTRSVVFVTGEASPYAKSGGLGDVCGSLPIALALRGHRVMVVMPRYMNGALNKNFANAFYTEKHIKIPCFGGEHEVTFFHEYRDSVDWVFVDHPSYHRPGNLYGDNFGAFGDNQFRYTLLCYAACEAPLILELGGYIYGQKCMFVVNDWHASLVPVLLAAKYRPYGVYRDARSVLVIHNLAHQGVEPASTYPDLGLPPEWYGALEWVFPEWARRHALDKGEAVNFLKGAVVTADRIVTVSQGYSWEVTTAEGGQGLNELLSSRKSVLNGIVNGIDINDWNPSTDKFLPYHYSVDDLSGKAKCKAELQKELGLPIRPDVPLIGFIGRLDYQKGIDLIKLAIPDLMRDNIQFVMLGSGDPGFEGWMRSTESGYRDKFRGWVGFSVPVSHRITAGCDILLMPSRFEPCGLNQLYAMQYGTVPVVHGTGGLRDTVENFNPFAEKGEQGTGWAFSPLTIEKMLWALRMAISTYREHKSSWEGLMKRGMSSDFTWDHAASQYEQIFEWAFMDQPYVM

[3] = target: T3, starch synthase IIa (rice, japonica (endogenous in developing seeds)) (UniProt Q0DDE3)
T3 sequence: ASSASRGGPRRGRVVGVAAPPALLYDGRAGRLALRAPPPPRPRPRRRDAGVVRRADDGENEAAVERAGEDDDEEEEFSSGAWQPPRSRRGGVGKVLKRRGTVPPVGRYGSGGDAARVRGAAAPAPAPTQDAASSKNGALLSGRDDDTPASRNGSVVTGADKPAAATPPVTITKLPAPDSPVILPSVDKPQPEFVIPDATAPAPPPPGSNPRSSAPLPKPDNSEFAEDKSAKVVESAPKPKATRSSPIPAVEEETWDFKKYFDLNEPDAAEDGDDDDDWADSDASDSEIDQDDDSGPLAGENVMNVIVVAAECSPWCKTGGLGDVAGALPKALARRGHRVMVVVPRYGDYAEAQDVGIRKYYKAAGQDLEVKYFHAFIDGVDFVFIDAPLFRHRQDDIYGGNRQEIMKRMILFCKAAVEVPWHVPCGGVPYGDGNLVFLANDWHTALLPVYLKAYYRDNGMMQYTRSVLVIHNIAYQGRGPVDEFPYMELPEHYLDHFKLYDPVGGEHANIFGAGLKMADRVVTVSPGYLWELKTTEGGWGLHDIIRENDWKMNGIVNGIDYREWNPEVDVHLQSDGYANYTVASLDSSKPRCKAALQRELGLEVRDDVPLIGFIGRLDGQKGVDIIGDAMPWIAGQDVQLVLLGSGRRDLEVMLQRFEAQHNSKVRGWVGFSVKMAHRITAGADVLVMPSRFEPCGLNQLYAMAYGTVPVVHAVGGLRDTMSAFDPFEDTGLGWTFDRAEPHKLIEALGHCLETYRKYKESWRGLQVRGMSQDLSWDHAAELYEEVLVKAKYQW

[4] = target: inactive BEIIb protein that harbors Gly645Arg substitution (rice, japonica (endogenous in developing seeds))
[5] = target: starch branching enzyme IIb (rice, japonica (endogenous in developing seeds))
[6] = target: starch branching enzyme IIa (rice, japonica (endogenous in developing seeds))

Molecule: inactive BEIIb protein that harbors Gly645Arg substitution (enzyme)
- binding [1]: binds
- binding [2]: binds
- binding [3]: binds

Molecule: starch branching enzyme IIb
- binding [1]: binds
- binding [2]: binds
- binding [3]: binds

B1: starch branching enzyme I (enzyme, UniProt Q01401 65-820)
chain: T1 sequence
- binding [4]: binds
- binding [5]: binds
- binding [6]: binds

B2: starch synthase I (enzyme, UniProt Q0DEC8 114-641)
chain: T2 sequence
- binding [4]: binds
- binding [5]: binds

B3: starch synthase IIa (enzyme, UniProt Q0DDE3 17-810)
chain: T3 sequence
- binding [4]: binds
- binding [5]: binds
- binding [6]: binds
